Source: patent US5032514A, “Metabolic pathway engineering to increase production of ascorbic acid intermediates” (Genentech, Inc., priority 1988, dated 1991)
At least one structure is not confirmed: it was looked up by name or label, or the drawing left a doubt.

Amino acid sequences for entries named in this document (tags omitted). A change or cut given only in a name is not applied to a line headed by its entry.
UniProt P58000: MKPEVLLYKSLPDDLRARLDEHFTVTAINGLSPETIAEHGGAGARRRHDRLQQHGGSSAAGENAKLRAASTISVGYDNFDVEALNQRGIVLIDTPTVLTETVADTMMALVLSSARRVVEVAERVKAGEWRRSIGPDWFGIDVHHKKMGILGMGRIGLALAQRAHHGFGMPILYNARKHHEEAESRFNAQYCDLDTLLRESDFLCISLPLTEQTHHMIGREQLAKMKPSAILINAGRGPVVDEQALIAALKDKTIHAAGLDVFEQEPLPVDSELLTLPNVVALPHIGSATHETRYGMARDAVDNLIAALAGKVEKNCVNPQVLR

Target: T1, 2-ketoaldonate reductase (Enterobacter agglomerans, UniProt P58000)
T1 construct: endogenous in cells; host or cells: Erwinia herbicola cytosol (DEAE-cellulose separated, further purified)
Assay: substrate activity for 2-ketoaldonate reductase
Type: biochemical, E. herbicola

SMILES	substrate activity
CC(=O)C(=O)O [pyruvate]	but not pyruvate
O=C(O)C(=O)CO [hydroxypyruvate]	shows activity
